According to US10837044B2, “Automated method for analyzing and interpreting an antimicrobial susceptibility” (FONDATION MEDITERRANEE INFECTION, priority 2014, dated 2020):
At least one compound was matched to its structure with a doubt left.

Columns and labels:
Staphylococcus aureus = assay: antibiogram by diffusion on Mueller-Hinton agar with antibiotic wafers; format: cell-based; settings: Table C1; S. aureus phenotype Methicillin resistant; six wafers, disk loads of Table B
Description: (§1) The inoculum was prepared by making a suspension of bacteria directly from colonies put into solution in tubes of sterile water so that the solution presented accurate opacity as determined with a spectrophotometer equivalent to the opacity of a 0.5 standard in the McFarland range. This bacterial suspension concentration is standardized since a more concentrated inoculum would lead to smaller diameters for the inhibition zone, and vice versa.
(§2) The inoculum corresponds to concentrations of about 10^8 CFU/mL for Escherichia coli, Klebsiella pneumoniae, Proteus mirabilis, Klebsiella oxytoca, Enterobacter cloacea, Enterobacter aerogenes, Entercoccus faecalis, Pseudomonas aeruginosa, Staphylococcus aureus, and Staphylococcus epidermidis. These are the ten species bacteria that are encountered the most frequently in human pathologies.
(§3) 1.2) The bacterial sample was deposited on a solid culture medium in a petri dish having a diameter of 90 mm or in a square dish having a side of 120 mm, the medium being constituted by a Mueller-Hinton agar specific for (EUCAST) antibiograms. Ideally, it should be used in the 15 minutes (min) following preparation of the suspension.
(§4) Seeding was done by the method of diffusion on an agar medium by flooding in which excess bacterial suspension was added to the Mueller-Hinton agar. […]

[1] = tested on: Staphylococcus epidermidis; assay: as above; format: cell-based; settings: Table C1; S. epidermidis phenotype Methicillin resistant; six wafers, disk loads of Table B
Description: as §1, §2, §3, §4

Escherichia coli = settings: cited from earlier work

SMILES | resistance (I, R) or sensitivity (S) (Staphylococcus aureus) | resistance (I, R) or sensitivity (S) [1] | Critical diameters (mm) R> (Escherichia coli; disk load 10 μg, inhibition zone diameter, resistant) [mm] | Critical diameters (mm) S≤ (Escherichia coli; disk load 10 μg, inhibition zone diameter, sensitive) [mm] | Critical concentrations (mg/L) R> (Escherichia coli; high critical concentration, resistant) [mg/L] | Critical concentrations (mg/L) S≤ (Escherichia coli; low critical concentration, sensitive) [mg/L]
CCC[C@@H]1C[C@@H](C(=O)N[C@@H]([C@H]2O[C@H](SC)[C@H](O)[C@@H](O)[C@H]2O)[C@H](C)Cl)N(C)C1 [CLI, clindamycin] | R/S | R/S | – | – | – | –
C[C@@H](O)[C@H]1C(=O)N2C(C(=O)O)=C(SCCN=CN)C[C@H]12 [IMP, imipenem] | – | – | 16 | 22 | 8 | 2
